PMC9822066 (Molecules, 2022)

Tested on: mice
Assay: Passive Avoidance Test, scopolamine-induced amnesia
Type: in vivo
Set-up: unit not given here
Conditions: scopolamine 1 mg/kg s.c. alone; mean ± SEM

CN1[C@@H]2C[C@@H](OC(=O)[C@H](CO)c3ccccc3)C[C@H]1[C@@H]1O[C@@H]12 [scopolamine, reference compound]
latency time in the retention trial: 22.71 ± 7.56
